From paper PMC10068952
No constants are given. Whether binding was seen depends on the method and setting. Binding seen in cells or lysates may run through a third protein. Some binding calls cover weakened binding; strength is not graded here.

Sequences of proteins named here, by UniProt entry; tags and fusion partners are left off.
UniProt Q8VI36: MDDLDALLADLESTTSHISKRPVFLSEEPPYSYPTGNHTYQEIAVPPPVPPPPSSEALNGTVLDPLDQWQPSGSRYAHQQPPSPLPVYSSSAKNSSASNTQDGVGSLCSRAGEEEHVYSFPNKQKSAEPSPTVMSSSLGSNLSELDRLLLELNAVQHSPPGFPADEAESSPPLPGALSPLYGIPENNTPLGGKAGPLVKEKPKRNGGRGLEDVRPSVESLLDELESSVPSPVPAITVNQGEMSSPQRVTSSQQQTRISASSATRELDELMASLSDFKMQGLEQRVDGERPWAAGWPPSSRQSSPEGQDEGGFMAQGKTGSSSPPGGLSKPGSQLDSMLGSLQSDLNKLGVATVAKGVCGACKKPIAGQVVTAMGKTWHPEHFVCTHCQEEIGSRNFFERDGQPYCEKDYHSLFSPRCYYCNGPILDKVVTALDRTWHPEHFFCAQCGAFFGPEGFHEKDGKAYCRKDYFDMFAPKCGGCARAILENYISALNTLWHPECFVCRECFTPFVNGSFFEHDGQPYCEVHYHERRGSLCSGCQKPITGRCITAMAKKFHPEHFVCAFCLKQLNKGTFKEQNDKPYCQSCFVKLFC
UniProt P49023: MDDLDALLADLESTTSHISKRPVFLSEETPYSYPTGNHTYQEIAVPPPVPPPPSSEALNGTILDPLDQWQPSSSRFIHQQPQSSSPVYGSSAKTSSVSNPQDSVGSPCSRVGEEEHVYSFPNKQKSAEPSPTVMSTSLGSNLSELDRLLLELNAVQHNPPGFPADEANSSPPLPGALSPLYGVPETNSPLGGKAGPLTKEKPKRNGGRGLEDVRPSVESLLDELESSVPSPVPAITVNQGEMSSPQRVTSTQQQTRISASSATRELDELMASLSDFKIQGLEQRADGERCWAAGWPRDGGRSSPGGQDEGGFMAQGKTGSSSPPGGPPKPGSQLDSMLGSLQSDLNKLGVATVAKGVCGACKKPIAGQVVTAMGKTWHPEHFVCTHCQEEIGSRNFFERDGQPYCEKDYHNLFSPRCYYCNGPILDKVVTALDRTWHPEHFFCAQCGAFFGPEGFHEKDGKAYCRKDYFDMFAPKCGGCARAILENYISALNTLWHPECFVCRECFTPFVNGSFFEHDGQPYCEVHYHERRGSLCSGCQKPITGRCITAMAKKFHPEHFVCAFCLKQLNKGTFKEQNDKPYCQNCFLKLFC
UniProt Q9H2G2: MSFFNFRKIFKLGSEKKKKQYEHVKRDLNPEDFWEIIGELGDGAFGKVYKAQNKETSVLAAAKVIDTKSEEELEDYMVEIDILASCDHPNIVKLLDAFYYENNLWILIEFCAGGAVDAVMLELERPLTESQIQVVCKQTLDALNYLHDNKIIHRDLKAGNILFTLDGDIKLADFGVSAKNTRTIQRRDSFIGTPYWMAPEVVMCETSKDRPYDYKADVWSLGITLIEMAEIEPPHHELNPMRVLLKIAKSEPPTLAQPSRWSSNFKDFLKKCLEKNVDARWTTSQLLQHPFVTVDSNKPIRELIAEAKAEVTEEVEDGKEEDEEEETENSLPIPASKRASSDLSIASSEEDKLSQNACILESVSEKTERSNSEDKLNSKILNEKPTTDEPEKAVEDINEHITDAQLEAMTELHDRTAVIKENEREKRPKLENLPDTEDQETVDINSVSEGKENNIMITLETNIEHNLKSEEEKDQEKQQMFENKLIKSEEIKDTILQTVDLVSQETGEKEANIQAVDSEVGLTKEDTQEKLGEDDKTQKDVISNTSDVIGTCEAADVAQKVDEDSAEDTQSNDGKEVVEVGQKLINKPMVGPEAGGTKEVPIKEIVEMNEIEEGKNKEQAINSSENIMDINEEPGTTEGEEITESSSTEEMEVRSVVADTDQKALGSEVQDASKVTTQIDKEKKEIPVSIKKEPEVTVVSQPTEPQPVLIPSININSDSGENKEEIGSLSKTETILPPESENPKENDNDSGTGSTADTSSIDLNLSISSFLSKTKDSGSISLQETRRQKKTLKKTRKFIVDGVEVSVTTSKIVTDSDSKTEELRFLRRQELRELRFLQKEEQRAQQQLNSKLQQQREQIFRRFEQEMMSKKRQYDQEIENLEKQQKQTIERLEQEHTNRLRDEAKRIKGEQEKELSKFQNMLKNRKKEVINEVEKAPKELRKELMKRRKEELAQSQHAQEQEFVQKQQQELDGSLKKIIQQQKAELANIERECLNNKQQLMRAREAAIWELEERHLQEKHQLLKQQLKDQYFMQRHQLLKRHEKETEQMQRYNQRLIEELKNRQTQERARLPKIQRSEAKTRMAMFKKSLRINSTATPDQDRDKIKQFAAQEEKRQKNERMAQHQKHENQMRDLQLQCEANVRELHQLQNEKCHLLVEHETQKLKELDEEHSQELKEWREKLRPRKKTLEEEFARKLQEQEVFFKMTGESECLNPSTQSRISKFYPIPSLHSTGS
UniProt O54988: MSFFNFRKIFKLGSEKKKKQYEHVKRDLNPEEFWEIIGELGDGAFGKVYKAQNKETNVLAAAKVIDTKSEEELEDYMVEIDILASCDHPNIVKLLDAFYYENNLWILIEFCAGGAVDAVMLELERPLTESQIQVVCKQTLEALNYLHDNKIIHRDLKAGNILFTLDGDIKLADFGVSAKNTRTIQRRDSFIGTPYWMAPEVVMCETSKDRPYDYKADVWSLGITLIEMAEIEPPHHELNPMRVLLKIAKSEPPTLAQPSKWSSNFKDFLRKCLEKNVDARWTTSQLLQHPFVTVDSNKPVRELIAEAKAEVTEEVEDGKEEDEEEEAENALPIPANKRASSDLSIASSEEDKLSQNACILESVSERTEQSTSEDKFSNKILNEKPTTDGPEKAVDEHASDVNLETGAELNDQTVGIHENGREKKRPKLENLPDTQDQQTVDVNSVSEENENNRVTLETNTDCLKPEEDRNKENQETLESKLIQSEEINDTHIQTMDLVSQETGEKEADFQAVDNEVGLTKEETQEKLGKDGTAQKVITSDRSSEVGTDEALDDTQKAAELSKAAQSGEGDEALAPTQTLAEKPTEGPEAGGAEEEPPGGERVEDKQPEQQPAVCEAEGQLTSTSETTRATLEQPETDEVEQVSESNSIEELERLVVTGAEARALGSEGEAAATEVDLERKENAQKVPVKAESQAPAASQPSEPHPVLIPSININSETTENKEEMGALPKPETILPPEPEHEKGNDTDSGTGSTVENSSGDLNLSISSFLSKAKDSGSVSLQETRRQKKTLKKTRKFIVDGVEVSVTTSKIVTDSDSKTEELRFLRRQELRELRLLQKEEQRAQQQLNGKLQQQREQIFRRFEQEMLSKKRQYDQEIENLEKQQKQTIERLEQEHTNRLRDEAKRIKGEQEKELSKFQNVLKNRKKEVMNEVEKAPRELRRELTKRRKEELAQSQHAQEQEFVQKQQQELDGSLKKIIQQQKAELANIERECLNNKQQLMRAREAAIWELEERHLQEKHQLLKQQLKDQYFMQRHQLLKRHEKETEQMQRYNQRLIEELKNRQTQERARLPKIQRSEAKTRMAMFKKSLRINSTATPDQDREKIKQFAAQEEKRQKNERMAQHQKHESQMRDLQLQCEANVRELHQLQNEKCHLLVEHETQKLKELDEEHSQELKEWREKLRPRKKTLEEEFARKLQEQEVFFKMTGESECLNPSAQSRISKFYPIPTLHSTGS

Assays:
[1] = target: paxillin (mouse (endogenous in mouse oocytes)) (UniProt Q8VI36); assay: proximity ligation; Duolink In situ Red Starter Kit Mouse/Rabbit on fixed, permeabilised mouse oocytes; rabbit anti-SLK and mouse anti-paxillin antibodies overnight at 4°C; anti-rabbit plus and anti-mouse minus probes at 37°C
[2] = target: paxillin (human (endogenous in HEK-293T)) (UniProt P49023); assay: co-IP; HEK 293T cell lysates incubated with IgG/anti-SLK antibody or IgG/anti-paxillin antibody (500 μg protein, 2 μg antibody, 12 h at 4°C, protein G agarose); lysis buffer 50 mM Tris-HCl pH 7.5, 150 mM NaCl, 0.3% Nonidet P-40, 2 mM EDTA; eluates blotted with anti-SLK and anti-paxillin
[3] = target: Ste20‐like kinase (SLK) (human (endogenous in HEK-293T)) (UniProt Q9H2G2); assay: as above

Ste20‐like kinase (SLK) (from UniProt O54988 1-1233)
binding [1]: binds

Ste20‐like kinase (SLK) (from UniProt Q9H2G2 1-1235)
binding [2]: binds

paxillin (from UniProt P49023 1-591)
binding [3]: binds
